Experimental data from PubChem BioAssay AID485314 (National Center for Advancing Translational Sciences (NCATS), 2010).
The whole screen tested about 340,000 compounds, of which about 4,500 (1.3%) were called active. The shares of active, inactive and inconclusive entries below differ from those in the screen. Calls follow the shape of the dose curve; as a rule, active = well fitted inhibition curve with a large enough effect; inconclusive = small, poorly fitted or top-dose-only effect, or another doubt; inactive = no such curve, though single readings can be large or run the other way. Potencies of inconclusive entries are doubtful fits and often do not repeat.

Each compound was assayed against DNA polymerase beta (Homo sapiens) (UniProt P06746) (assay: qHTS Assay for Inhibitors of DNA Polymerase Beta). Conditions: Pol beta primer extension/strand displacement, fluorescence kinetic; activity change, negative = inhibition: at 114 µM (top of the series).
In short: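 Preincubation: enzyme (10 nM) with compound, 15 min, RT. Reaction: substrate added to 50 nM final. Reads: 0 and 10 min. Analysis: normalized, Hill fit.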
% is scaled to controls: 0 for no effect and ±100 for the full control effect; potency is read from the fitted curve at half-maximal effect.

| SMILES | Potency | activity change, negative = inhibition |
| --- | --- | --- |
| COc1cc(/C=N/NC(=O)Cc2ccc(Br)cc2)cc(OC)c1O | active: 22.4 µM | – |
| O=C1N=C(N2CCOCC2)S/C1=C/c1ccc(-c2ccccc2Cl)o1 | inconclusive: 79.4 µM [inhibitor, single point] | – |
| O=C(CCC1COc2ccccc2O1)NCc1ccco1 (stereo not drawn) | inconclusive: 25.1 µM [inhibitor, single point] | – |
| O=C(NCc1ccccc1)c1ccc2c(c1)N(Cc1ccccc1)C(=O)c1ccccc1S2(=O)=O | inconclusive: 35.5 µM [inhibitor, single point] | – |
| NC(=O)N=Nc1c(O)[nH]c2c(Br)cc(Br)cc12 | inconclusive: 20 µM [inhibitor, partial curve] | – |
| COCCCn1c(SCC(=O)n2c(C)c(C)c3ccccc32)nnc1-c1ccoc1C | inconclusive: 89.1 µM [inhibitor, single point] | – |
| CC1CCN(C(=O)c2ccc(NC(=O)C3CCCO3)cc2)CC1 (stereo not drawn) | inconclusive: 89.1 µM [inhibitor, single point] | – |
| CCOC(=O)c1sc(=S)n(-c2ccc(C)cc2)c1N | – | inactive: 3.96% |
| CCOC(=O)c1c(C)n(C)c2ccc(OC(C)C(=O)OC)cc12 (stereo not drawn) | inconclusive: 89.1 µM [inhibitor, single point] | – |
| Cc1cccc2c(=O)cc(CSCC(=O)Nc3ccc(Cl)cc3)[nH]c12 | inconclusive: 11.2 µM [inhibitor, full curve] | – |
| CC(=O)c1ccc(NS(=O)(=O)c2cccc(C(=O)Nc3ccccc3C(=O)O)c2)cc1 | – | inactive: 14.4% |
| COC(=O)C1C(c2ccccc2)C(C(=O)O)C1c1ccccc1 (stereo not drawn) | inconclusive: 100 µM [inhibitor, single point] | – |
| COc1ccc(C2CC(=O)c3cc(-c4nc(-c5cccc([N+](=O)[O-])c5)cs4)c(=O)n(-c4ccc(F)cc4)c3C2)cc1 (stereo not drawn) | – | inactive: 5.07% |
| Cc1oc(-c2ccc(Cl)cc2)nc1CN1CCCC(C(=O)NCCc2ccccc2)C1 (stereo not drawn) | inconclusive: 3.55 µM [inhibitor, single point] | – |
| O=C(O)c1ccc(C(=O)Nc2cccc(NC(=O)C3CCCO3)c2)cc1 (stereo not drawn) | inconclusive: 89.1 µM [inhibitor, single point] | – |
| O=C(NC(=S)Nc1cc(Cl)ccc1O)c1cccc(Br)c1 | inconclusive: 79.4 µM [inhibitor, single point] | – |
| COc1ccc(C(=O)NC(=S)Nc2cccc3cc(O)ccc23)cc1OC | inconclusive: 35.5 µM [inhibitor, full curve, poor fit] | – |
| COc1ccc(-n2c(NC(=O)c3ccc(Br)o3)c(C#N)c3nc4ccccc4nc32)cc1 | active: 31.6 µM | – |
| COc1ccc(Nc2nc(Nc3ccc(OC)cc3OC)nc(N3CCOCC3)n2)c(OC)c1 | – | inactive: 34.7% |
| CCCCn1c(SCC(=O)NC(=O)NCc2ccco2)nc2cc(S(N)(=O)=O)ccc21 | active: 28.2 µM | – |
| Cc1cccc(COCC(Cc2ccccc2)N2CCN(C(=O)c3cc(Cl)cc(Cl)c3)CCC2=O)c1 (stereo not drawn) | inconclusive: 89.1 µM [inhibitor, single point] | – |
| O=C(Cn1c(=O)n(Cc2ccc(C(=O)NCc3ccc4c(c3)OCO4)cc2)c(=O)c2ccccc21)Nc1ccc(F)cc1F | active: 10 µM | – |
| CNC(=O)c1ccccc1S(=O)(=O)c1ccccc1C#N | inconclusive: 0.282 µM [inhibitor, full curve] | – |

| SMILES | Potency | activity change, negative = inhibition |
| --- | --- | --- |
| COc1ccc(NC(=O)CSc2ccc(-c3sc(C)nc3C)nn2)cc1OC | active: 25.1 µM | – |
| O=S(=O)(Nc1ncccn1)c1cc(Cl)ccc1Cl | – | inactive: 34.3% |
| O=C(Nc1ccccc1C(=O)O)c1ccc(CN2C(=O)c3ccccc3C2=O)cc1 | – | inactive: 1.17% |
| CC(Sc1ccccc1)C(=O)N/N=C/c1cccnc1 (stereo not drawn) | inconclusive: 39.8 µM [inhibitor, single point] | – |
| CCOC(=O)Cc1csc(NC(=O)CSc2cc(Cl)ccc2Cl)n1 | inconclusive: 35.5 µM [inhibitor, single point] | – |
| COc1ccc(Nc2nnc(-c3ccc(C)c(S(N)(=O)=O)c3)c3ccccc23)cc1 | – | inconclusive: -31.9% [inhibitor] |
| Cc1cc(N2CCN(c3ccccn3)CC2)n2cc(-c3ccccc3)nc2n1 | inconclusive: 79.4 µM [inhibitor, single point] | – |
| Cc1ccc(C(C[N+](=O)[O-])n2nc(C)cc2C)cc1 (stereo not drawn) | – | inactive: -9.07% |
| COc1ccc(Cl)cc1NC(=O)c1ocnc1C | inconclusive: 35.5 µM [inhibitor, full curve] | – |
| Cc1ccc(NC(=O)Cn2c(=O)oc3cc(S(=O)(=O)N4CCCC4)ccc32)cc1F | inconclusive: 28.2 µM [inhibitor, partial curve] | – |
| COc1cccc(C2C(C(=O)Nc3cccnc3)=C(C)Nc3nc(SCc4ccccc4)nn32)c1 (stereo not drawn) | – | inactive: 2.53% |
| Cc1ccc(C(=O)c2sc(Nc3ccccc3)c(C#N)c2N)cc1 | inconclusive: 8.91 µM [inhibitor, full curve, poor fit] | – |
| CCOc1cc(/C=C(/C#N)c2nc3ccccc3[nH]2)ccc1OCc1ccc(C(=O)O)o1 | active: 39.8 µM | – |
| COc1ccc2nc(NC(=O)c3cnccn3)sc2c1 | inconclusive: 11.2 µM [inhibitor, partial curve, poor fit] | – |
| CCCCN1C(=O)CCC(C(=O)O)C1c1ccccc1 (stereo not drawn) | inconclusive: 20 µM [inhibitor, partial curve] | – |
| CCC(=O)N1CCc2cc(S(=O)(=O)NC(CC(C)C)C(=O)Nc3ccc(CC)cc3)ccc21 (stereo not drawn) | inconclusive: 100 µM [inhibitor, single point] | – |
| CCc1cccc(C)c1NC(=O)c1cnn(-c2ccc(F)cc2)c1-n1cccc1 | – | inactive: 68.7% |
| CC(C)c1ccc(NC(=O)c2cc([N+](=O)[O-])ccc2N2CCOCC2)cc1 | inconclusive: 3.16 µM [inhibitor, full curve, poor fit] | – |
| COc1ccccc1/C=C/C(=O)N1CCc2cc(OC)c(OC)cc2C1C (stereo not drawn) | – | inactive: -9.41% |
| Cc1cc(-c2nnc(SCC(=O)Nc3nccs3)o2)no1 | – | inconclusive: -40.8% [inhibitor] |
| COC(=O)C1=C(C(=O)OC)[C@@H]2N(C)c3ccccc3[C@@]23C[C@@H](C(=O)OC)N(C(=O)c2cc(C)oc2C)C3=N1 | inconclusive: 89.1 µM [inhibitor, single point] | – |
| COc1ccccc1C1=Nn2c(nnc2C2CCCCC2)SC1 | inconclusive: 89.1 µM [inhibitor, single point] | – |

Reprinted from the entries so far (3 entries):

| SMILES | Potency | activity change, negative = inhibition |
| --- | --- | --- |
| Cc1ccc(NC(=O)Cn2c(=O)oc3cc(S(=O)(=O)N4CCCC4)ccc32)cc1F | inconclusive: 28.2 µM [inhibitor, partial curve] | – |
| COc1cccc(C2C(C(=O)Nc3cccnc3)=C(C)Nc3nc(SCc4ccccc4)nn32)c1 (stereo not drawn) | – | inactive: 2.53% |
| Cc1ccc(C(=O)c2sc(Nc3ccccc3)c(C#N)c2N)cc1 | inconclusive: 8.91 µM [inhibitor, full curve, poor fit] | – |

(cont.)

| SMILES | Potency | activity change, negative = inhibition |
| --- | --- | --- |
| CC(=O)c1ccc(N2CCN(C(=O)c3ccc4nc[nH]c4c3)CC2)cc1 | inconclusive: 63.1 µM [inhibitor, single point] | – |
| CC1(C2CC(C(F)(F)F)n3nc(C(=O)O)cc3N2)CC1 (stereo not drawn) | inconclusive: 0.891 µM [inhibitor, full curve, poor fit] | – |
| CCOc1ccc2[nH]c(=O)c(CN(CCc3ccccc3)C(=O)c3cnccn3)cc2c1 | inconclusive: 89.1 µM [inhibitor, single point] | – |
| COc1ccccc1C(=O)NC(=S)Nc1ccc(S(=O)(=O)N2CCN(C)CC2)cc1 | inconclusive: 12.6 µM [inhibitor, partial curve] | – |
| Nc1ccn(Cc2ccc(F)cc2)n1 | – | inactive: 0.345% |
| COc1ccc(-n2nc3c(N4CCC(C(=O)NCc5cccc(C)c5)CC4)nnc(C)c3c2C)cc1 | inconclusive: 3.55 µM [inhibitor, full curve] | – |
| CC1(C)Cc2nc3n[nH]c(N)c3cc2CO1 | inconclusive: 89.1 µM [inhibitor, single point] | – |
| CCC(CC)C(=O)Nc1ccccc1C(=O)OCc1cc(=O)n2nc(C3CCCCC3)sc2n1 | – | inactive: 14.5% |
| Cc1ccc(NC(=O)c2sc3nc(N)c(C#N)cc3c2N)cc1 | inconclusive: 12.6 µM [inhibitor, partial curve, poor fit] | – |
| Cc1nnc(N/N=C\c2ccc(-c3cccc(C(=O)O)c3)o2)n1N | inconclusive: 15.8 µM [inhibitor, partial curve] | – |
| Nc1[nH]n(-c2ccccc2)c(=O)c1N=Nc1ccc2ncsc2c1 | inconclusive: 14.1 µM [inhibitor, partial curve] | – |
| CCN(CC)CCCNC(=O)Cn1c(-c2cccs2)cc2cc(Cl)ccc21 | – | inactive: -24.9% |
| O=C1CN(C(=O)CSc2nc3cc(Cl)ccc3c(=O)n2Cc2ccccc2)c2ccccc2N1 | inconclusive: 79.4 µM [inhibitor, single point] | – |
| CCOC(=O)c1c(C)oc2c(Cl)cc(NS(=O)(=O)c3ccc(Cl)c(C)c3)cc12 | – | inactive: -0.338% |
| COC(=O)c1ccc(CSc2nnc3sc4ccccc4n23)o1 | inconclusive: 39.8 µM [inhibitor, single point] | – |
| Cc1ccc(NC(=O)Cn2nnc(C(=O)NCc3ccco3)c2N)c(C)c1 | – | inconclusive: -82.7% [inhibitor] |
| COc1ccc(NC(=O)Cn2cc(C(=O)C3CC3)c3ccccc32)cc1 | inconclusive: 2.82 µM [inhibitor, full curve, poor fit] | – |
| COC(=O)c1cc(NC(=O)CN(c2ccccc2)S(=O)(=O)N(C)C)ccc1Cl | – | inactive: -7.55% |
| NS(=O)(=O)c1ccc(CCNc2nc3c(-c4cccc(F)c4)nnn3c3ccc(Cl)cc23)cc1 | inconclusive: 3.98 µM [inhibitor, full curve] | – |
| CCOc1ccccc1NC(=O)Cn1nnc2sc3c(c2c1=O)CCC(C(C)(C)C)C3 (stereo not drawn) | – | inactive: 9.47% |
| Cc1ccc(-n2ncc3c(NCCC4=CCCCC4)ncnc32)cc1C | – | inactive: 3.53% |
| COc1cccc(-n2nnc3c(=O)n(CC(=O)Nc4ccccc4C)cnc32)c1 | inconclusive: 15.8 µM [inhibitor, partial curve] | – |
